{"source": "patent US20220096411A1", "about": "“COMBINING METABOLIC STIMULATION AND AMINO ACIDS TO SENSITIZE TOLERANT BACTERIA TO ANTIBIOTICS” (priority 2019, published 2022)", "test_system": "Escherichia coli K12 strain MG1655", "experiment": "MIC determination (metabolite-enabled MIC from optical density dose-response)", "format": "cell-based", "conditions": "with pyruvate (FIG. 2E) or without metabolic stimulant (FIG. 2F); ampicillin potentiated, comparators D-cycloserine, ciprofloxacin, gentamicin are the non-β-lactams"}
{"molecule": "O=C(O)c1cn(C2CC2)c2cc(N3CCNCC3)c(F)cc2c1=O", "note": "[ciprofloxacin, reference compound]", "values": [{"measurement": "potentiation of the antibiotic by D-amino acids", "result": "specific to β-lactam antibiotics"}]}
